Measured values from PMC5322342.
These are yes or no findings as the source states them, for the method shown. Binding seen in cells or lysates may run through a third protein. Some results given as binding are weak or reduced against the parent protein; the word gives no strength. Sequences can lack the tags named with a protein.

T1: sGC α2(1-713) with C-terminal HA or FLAG tag (human) (UniProt P33402)
T1 sequence: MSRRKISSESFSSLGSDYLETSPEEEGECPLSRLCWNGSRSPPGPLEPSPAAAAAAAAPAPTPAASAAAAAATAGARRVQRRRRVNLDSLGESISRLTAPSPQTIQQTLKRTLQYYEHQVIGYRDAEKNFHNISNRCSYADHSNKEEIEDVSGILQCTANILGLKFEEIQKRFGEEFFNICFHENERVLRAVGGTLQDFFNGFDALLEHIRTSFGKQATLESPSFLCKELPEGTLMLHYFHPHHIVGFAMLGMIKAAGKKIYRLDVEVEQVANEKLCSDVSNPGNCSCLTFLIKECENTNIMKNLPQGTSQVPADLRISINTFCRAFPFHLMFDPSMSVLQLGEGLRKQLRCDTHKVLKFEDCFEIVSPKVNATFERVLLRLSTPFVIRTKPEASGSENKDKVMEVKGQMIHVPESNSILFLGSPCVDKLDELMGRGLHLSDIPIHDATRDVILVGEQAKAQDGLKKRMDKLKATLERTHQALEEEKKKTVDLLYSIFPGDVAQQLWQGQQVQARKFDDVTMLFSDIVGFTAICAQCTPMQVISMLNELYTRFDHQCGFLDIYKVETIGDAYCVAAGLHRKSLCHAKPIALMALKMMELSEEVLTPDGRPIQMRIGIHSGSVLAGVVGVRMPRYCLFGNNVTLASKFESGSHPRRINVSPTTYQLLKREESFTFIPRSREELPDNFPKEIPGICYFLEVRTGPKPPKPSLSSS


How the values were obtained:
[1] = target: sGC α1(1-690) with C-terminal HA or FLAG tag (human) (UniProt Q02108); assay: co-IP; SH-SY5Y cells transiently co-transfected with three HA-/FLAG-tagged constructs at a time (eight combinations); HA-tagged construct precipitated with anti-HA antibody and Protein A/G Plus Agarose (Pierce Classic IP Kit), overnight at 4 °C; co-precipitated FLAG-tagged constructs detected by anti-FLAG immunoblot
[2] = target: T1, sGC α2(1-713) with C-terminal HA or FLAG tag (human); assay: as above

| Binder | binding [1] | binding [2] |
| --- | --- | --- |
| sGC β1(1-619) with C-terminal HA or FLAG tag (protein, UniProt Q02153 1-619) MYGFVNHALELLVIRNYGPEVWEDIKKEAQLDEEGQFLVRIIYDDSKTYDLVAAASKVLNLNAGEILQMFGKMFFVFCQESGYDTILRVLGSNVREFLQNLDALHDHLATIYPGMRAPSFRCTDAEKGKGLILHYYSEREGLQDIVIGIIKTVAQQIHGTEIDMKVIQQRNEECDHTQFLIEEKESKEEDFYEDLDRFEENGTQESRISPYTFCKAFPFHIIFDRDLVVTQCGNAIYRVLPQLQPGNCSLLSVFSLVRPHIDISFHGILSHINTVFVLRSKEGLLDVEKLECEDELTGTEISCLRLKGQMIYLPEADSILFLCSPSVMNLDDLTRRGLYLSDIPLHDATRDLVLLGEQFREEYKLTQELEILTDRLQLTLRALEDEKKKTDTLLYSVLPPSVANELRHKRPVPAKRYDNVTILFSGIVGFNAFCSKHASGEGAMKIVNLLNDLYTRFDTLTDSRKNPFVYKVETVGDKYMTVSGLPEPCIHHARSICHLALDMMEIAGQVQVDGESVQITIGIHTGEVVTGVIGQRMPRYCLFGNTVNLTSRTETTGEKGKINVSEYTYRCLMSPENSDPQFHLEHRGPVSMKGKKEPMQVWFLSRKNTGTEETKQDDD | – | binds |
| sGC β1(1-619) H105G with C-terminal FLAG tag (protein, UniProt Q02153 1-619) MYGFVNHALELLVIRNYGPEVWEDIKKEAQLDEEGQFLVRIIYDDSKTYDLVAAASKVLNLNAGEILQMFGKMFFVFCQESGYDTILRVLGSNVREFLQNLDALGDHLATIYPGMRAPSFRCTDAEKGKGLILHYYSEREGLQDIVIGIIKTVAQQIHGTEIDMKVIQQRNEECDHTQFLIEEKESKEEDFYEDLDRFEENGTQESRISPYTFCKAFPFHIIFDRDLVVTQCGNAIYRVLPQLQPGNCSLLSVFSLVRPHIDISFHGILSHINTVFVLRSKEGLLDVEKLECEDELTGTEISCLRLKGQMIYLPEADSILFLCSPSVMNLDDLTRRGLYLSDIPLHDATRDLVLLGEQFREEYKLTQELEILTDRLQLTLRALEDEKKKTDTLLYSVLPPSVANELRHKRPVPAKRYDNVTILFSGIVGFNAFCSKHASGEGAMKIVNLLNDLYTRFDTLTDSRKNPFVYKVETVGDKYMTVSGLPEPCIHHARSICHLALDMMEIAGQVQVDGESVQITIGIHTGEVVTGVIGQRMPRYCLFGNTVNLTSRTETTGEKGKINVSEYTYRCLMSPENSDPQFHLEHRGPVSMKGKKEPMQVWFLSRKNTGTEETKQDDD | – | binds |

The next lines start with the values.

| binding [1] | binding [2] | Binder |
| --- | --- | --- |
| binds | – | sGC α1(1-690) with C-terminal HA or FLAG tag (protein, UniProt Q02108 1-690) MFCTKLKDLKITGECPFSLLAPGQVPNESSEEAAGSSESCKATVPICQDIPEKNIQESLPQRKTSRSRVYLHTLAESICKLIFPEFERLNVALQRTLAKHKIKESRKSLEREDFEKTIAEQAVAAGVPVEVIKESLGEEVFKICYEEDENILGVVGGTLKDFLNSFSTLLKQSSHCQEAGKRGRLEDASILCLDKEDDFLHVYYFFPKRTTSLILPGIIKAAAHVLYETEVEVSLMPPCFHNDCSEFVNQPYLLYSVHMKSTKPSLSPSKPQSSLVIPTSLFCKTFPFHFMFDKDMTILQFGNGIRRLMNRRDFQGKPNFEEYFEILTPKINQTFSGIMTMLNMQFVVRVRRWDNSVKKSSRVMDLKGQMIYIVESSAILFLGSPCVDRLEDFTGRGLYLSDIPIHNALRDVVLIGEQARAQDGLKKRLGKLKATLEQAHQALEEEKKKTVDLLCSIFPCEVAQQLWQGQVVQAKKFSNVTMLFSDIVGFTAICSQCSPLQVITMLNALYTRFDQQCGELDVYKVETIGDAYCVAGGLHKESDTHAVQIALMALKMMELSDEVMSPHGEPIKMRIGLHSGSVFAGVVGVKMPRYCLFGNNVTLANKFESCSVPRKINVSPTTYRLLKDCPGFVFTPRSREELPPNFPSEIPGICHFLDAYQQGTNSKPCFQKKDVEDGNANFLGKASGID |
| – | binds | sGC α2(1-713) with C-terminal HA or FLAG tag (protein, UniProt P33402-1 1-713) MSRRKISSESFSSLGSDYLETSPEEEGECPLSRLCWNGSRSPPGPLEPSPAAAAAAAAPAPTPAASAAAAAATAGARRVQRRRRVNLDSLGESISRLTAPSPQTIQQTLKRTLQYYEHQVIGYRDAEKNFHNISNRCSYADHSNKEEIEDVSGILQCTANILGLKFEEIQKRFGEEFFNICFHENERVLRAVGGTLQDFFNGFDALLEHIRTSFGKQATLESPSFLCKELPEGTLMLHYFHPHHIVGFAMLGMIKAAGKKIYRLDVEVEQVANEKLCSDVSNPGNCSCLTFLIKECENTNIMKNLPQGTSQVPADLRISINTFCRAFPFHLMFDPSMSVLQLGEGLRKQLRCDTHKVLKFEDCFEIVSPKVNATFERVLLRLSTPFVIRTKPEASGSENKDKVMEVKGQMIHVPESNSILFLGSPCVDKLDELMGRGLHLSDIPIHDATRDVILVGEQAKAQDGLKKRMDKLKATLERTHQALEEEKKKTVDLLYSIFPGDVAQQLWQGQQVQARKFDDVTMLFSDIVGFTAICAQCTPMQVISMLNELYTRFDHQCGFLDIYKVETIGDAYCVAAGLHRKSLCHAKPIALMALKMMELSEEVLTPDGRPIQMRIGIHSGSVLAGVVGVRMPRYCLFGNNVTLASKFESGSHPRRINVSPTTYQLLKREESFTFIPRSREELPDNFPKEIPGICYFLEVRTGPKPPKPSLSSS |
